Reference: PubChem BioAssay AID504444 (National Center for Advancing Translational Sciences (NCATS), 2011)
In all, about 360,000 compounds went through this assay and about 7,500 (2.1%) were called active. The shares of active, inactive and inconclusive entries below differ from those in the screen. Calls come from the whole dose curve; as a rule, active = well fitted inhibition curve with a large enough effect; inconclusive = small, poorly fitted or top-dose-only effect, or effect the other way; inactive = flat fitted curve, though single readings scatter. Potencies of inconclusive entries are doubtful fits and often do not repeat.

Assay: Nrf2 qHTS screen for inhibitors; note: nearly all actives have a fitted effect of over 60% in size
Settings: A549 ARE-Fluc reporter, luciferase luminescence, 18-24 h; activity change, negative = inhibition: at 46 µM (top of the series)
Method in brief: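 Nrf2 function is reported as luminescence of an ARE-controlled luciferase in A549 cells. Compounds were tested at several concentrations, and a CellTiter-Fluor read on the same wells flagged cytotoxicity.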
% is set by controls: 0 for no effect and ±100 for the full control effect; potency is the fitted concentration of half-maximal effect.

SMILES | Potency | activity change, negative = inhibition
Cc1occc1C(=O)N/N=C/C=C/c1ccc(N(C)C)cc1 | inconclusive: 4.61 µM [activator, full curve] | –
CCOc1ccc(-c2nc(C#N)c(NCc3ccco3)o2)cc1 | inconclusive: 7.31 µM [activator, partial curve] | –
NC(=O)c1ccccc1NC(=O)C1CCCN(c2ncnc3onc(-c4ccc(F)cc4)c23)C1 (stereo unspecified) | inconclusive: 18.4 µM [activator, partial curve] | –
Cc1cc(N2CCCC2=O)ccc1S(=O)(=O)N1CCOCC1 | inconclusive: 0.366 µM [falling, partial curve] | –
CC(C)(C)c1ccc(S(=O)(=O)NCC(=O)N2CCN(Cc3ccccc3)CC2)cc1 | inconclusive: 14.6 µM [falling, partial curve] | –
CNS(=O)(=O)c1ccc(NC(=O)c2csc(C)c2)cc1 | inconclusive: 2.31 µM [activator, full curve, poor fit] | –
Cc1ccccc1Cn1c(=O)n(Cc2ccc3c(c2)OCO3)c(=O)c2oc3ccccc3c21 | inconclusive: 29.1 µM [activator, single point] | –
O=C(Cc1ccc(S(=O)(=O)N2CCCCC2)s1)Nc1ccc(F)c(F)c1 | inconclusive: 18.4 µM [falling, single point] | –
CC1=C(C(=O)OC2CCCCC2)C(c2ccc(C)o2)C2=C(CC(C)(C)CC2=O)N1 (stereo unspecified) | inconclusive: 25.9 µM [falling, single point] | –
Cc1nc2ccccc2c(=O)n1-c1ccc(NS(=O)(=O)c2ccc(F)cc2)cc1 | inconclusive: 23.1 µM [falling, single point] | –
Cc1cc(N2C(=O)C=CC2=O)c([N+](=O)[O-])cc1C | inconclusive: 25.9 µM [falling, partial curve, poor fit] | –
CCCC1CCc2c(c3ccccc3[nH]c2=O)O1 (stereo unspecified) | inconclusive: 5.8 µM [falling, partial curve, poor fit] | –
Cn1c(=O)n(C)c2cc(NC(=O)CSc3ccccc3)ccc21 | inconclusive: 10.3 µM [falling, partial curve] | –
CN(C)C(=O)[C@@H]1C[C@H]1[C@@H](NC(=O)OCc1ccccc1)c1ccccc1 | inconclusive: 2.06 µM [falling, partial curve, poor fit] | –
CCOC(=O)c1cc(=O)c2c([N+](=O)[O-])ccc(OC)c2o1 | inconclusive: 6.51 µM [activator, partial curve, poor fit] | –
CC1C=CCC2C(=O)N(c3cccc(C(=O)Nc4ccc(Br)cc4)c3)C(=O)C12 (stereo unspecified) | inconclusive: 29.1 µM [falling, single point] | –
CCOc1cc(C)c(-c2onc(C(F)(F)F)c2-c2csc(C)n2)c(O)c1 | inconclusive: 29.1 µM [falling, single point] | –
CCCCCCSc1cccc(-c2nc3ccc(Cl)cn3c2NCc2ccccc2)c1 | inconclusive: 18.4 µM [falling, partial curve, poor fit] | –
Cc1cc(C(C)(C)C)oc1C(=O)N(CC(=O)NC1CCCC1)Cc1ccc(Cl)cc1 | inconclusive: 14.6 µM [falling, partial curve, poor fit] | –
CC(=O)Nc1ccc2oc(-c3ccccc3)nc2c1 | inconclusive: 6.51 µM [activator, full curve] | –
Cc1ccc(NNC2CC(=O)N(c3cccc(Cl)c3)C2=O)cc1 (stereo unspecified) | – | inactive: 25.3%

An excerpt from above in order of molar mass, low to high.
SMILES | Potency | activity change, negative = inhibition
CCOC(=O)c1cc(=O)c2c([N+](=O)[O-])ccc(OC)c2o1 | inconclusive: 6.51 µM [activator, partial curve, poor fit] | –
CCOc1cc(C)c(-c2onc(C(F)(F)F)c2-c2csc(C)n2)c(O)c1 | inconclusive: 29.1 µM [falling, single point] | –
CC1=C(C(=O)OC2CCCCC2)C(c2ccc(C)o2)C2=C(CC(C)(C)CC2=O)N1 (stereo unspecified) | inconclusive: 25.9 µM [falling, single point] | –
CC1C=CCC2C(=O)N(c3cccc(C(=O)Nc4ccc(Br)cc4)c3)C(=O)C12 (stereo unspecified) | inconclusive: 29.1 µM [falling, single point] | –

Next structures

SMILES | Potency | activity change, negative = inhibition
COc1ccc(C(=O)NCCS(=O)(=O)NCCc2ccccc2)cc1 | inconclusive: 18.4 µM [activator, partial curve, poor fit] | –
CN(C)c1ccc(CN(CC2CCCO2)C(=O)COc2ccccc2Cl)cc1 (stereo unspecified) | – | inactive: -31.3%
CC(C)OCCCNc1ncnc2c1[nH]c1ccc(F)cc12 | active: 4.11 µM | –
COc1ccc(N2CCN(C(=O)CCNS(=O)(=O)c3cccs3)CC2)cc1 | – | inactive: 15.3%
Cc1c(C(=O)N2CCN(c3ccccn3)CC2)oc2c(F)cccc12 | inconclusive: 23.1 µM [activator, partial curve, poor fit] | –
O=C(CN1C(=O)/C(=C\c2ccc(F)cc2)Oc2ccccc21)N1CCN(c2ccccn2)CC1 | – | inactive: 0%
Cc1cc(NC(=O)Cn2nc(-c3cccs3)ccc2=O)cc(C)c1Br | inconclusive: 29.1 µM [falling, single point] | –
N#Cc1ccc(-c2cccs2)nc1SCc1c(F)cccc1Cl | – | inactive: -24.7%
COc1cc(SC)ccc1C(=O)Nc1cccc(S(=O)(=O)NC2=NCCC2)c1 | inconclusive: 10.3 µM [falling, partial curve] | –
C/C(=N\Nc1ccc(C(=O)O)cc1)c1ccc(-n2ccnc2)cc1 | inconclusive: 8.2 µM [activator, partial curve] | –
O=C(NCCOCCOCCNC(=O)c1ccccc1)c1ccccc1 | inconclusive: 3.66 µM [activator, full curve, poor fit] | –
CCOc1cccc(/C=C/c2ccc3ccccc3n2)c1OC(C)=O | inconclusive: 20.6 µM [activator, single point] | –
O=[N+]([O-])c1cc(NCCO)c(N2CCCCCC2)c2nonc12 | inconclusive: 9.2 µM [falling, partial curve, poor fit] | –
CCOc1cccc(C(=O)NC2CCCCC2)c1 | inconclusive: 18.4 µM [activator, single point] | –
CC(=O)Nc1ccc(CN2CCCC(CO)(Cc3cccc(Cl)c3)C2)cc1 (stereo unspecified) | inconclusive: 3.26 µM [falling, single point] | –
O=C(Nc1cc(F)ccc1F)N1CCC(CN2CCOCC2)CC1 | – | inactive: -4.06%
COc1cccc(C(=O)NNC(=O)Cc2csc(N)n2)c1 | inconclusive: 29.1 µM [activator, partial curve, poor fit] | –
CCOC(=O)C1=C(C)Nc2ccccc2N=C1NC(=O)C1CCN(C(=O)c2ccccc2C)CC1 | inconclusive: 6.51 µM [activator, partial curve, poor fit] | –
COc1cccc(C(=O)NCCSc2c(C)[nH]c3ccccc23)c1OC | inconclusive: 29.1 µM [falling, single point] | –
CS(=O)(=O)Nc1ccccc1C(=O)Nc1cc(Cl)cc(Cl)c1 | active: 13 µM | –
